Data taken from patent publication US20160176855A1, “Novel Sterically Hindered Cyclic Amines” (CLARIANT INTERNATIONAL LTD, priority 2013, published 2016).

Assay: Charpy notched impact resistance of PEEK with additive (ISO 179/1eA)
Conditions: PEEK (Vestakeep 2000G) with 0.4% by weight additive, T=23° C.
Experimental: Determination of Charpy impact properties of PEEK with and without additives based on the compounds of the invention, including comparison with Nylostab S-EED.
Charpy notched impact resistance is the impact energy absorbed when a notched test specimen fractures, divided by the initial cross-sectional area of the test specimen at the notch side. Procedure as in DIN EN ISO 179-1.
The test specimens of the PEEK polymer were prepared from the corresponding pellets by using a heated press to apply a pressure of 50 bar at a temperature of 390° C. The pellets here were applied uniformly to the preheated lower plate within a metal frame of thickness 4 mm (internal dimensions 200×200 mm), and then the polymer was exposed in the melt to the abovementioned pressure for 10 min. After slow depressurization and cooling, the sheet, which was visually homogeneous, was cut to give individual smaller rectangular specimen sections of thickness 4 mm, length 80 mm, and width 10 mm. In order to minimize variance, 10 of these rectangular specimen sections were used for each measurement.
Specimens of this type were prepared a) without further additive, b) with 0.4% by weight of Nylostab S-EED, and c) with 0.4% by weight of an additive of the invention.
The notched impact resistance tests, which allow conclusions to be drawn concerning the behavior of the plastics specimen on exposure to short-term mechanical impact stress, used a 3/76-50 pendulum impact tester from Feinmechanik Kögel, Leipzig (FIG. 1).
The conditions for the 16-hour conditioning of the specimens and of the measurements were: 23° C. and 50% rel. humidity.
Once the pendulum impact tester had been switched on, the respective current measurement parameters were input, alongside the batch numbers. […] The notched impact energy W in kilojoules/m^2 is thus determined for the PEEK polymer at 23° C. in accordance with the following equation: […]
The predried PEEK powder was charged by way of a hopper preheated to T=180° C. […] The quantities were judged to give a final total concentration of 0.4% by weight of additive. […]

SMILES | Notched impact resistance [kJ/m^2]
CC1(C)CC(NC(=O)c2cccc(C(=O)NC3CC(C)(C)NC(C)(C)C3)c2)CC(C)(C)N1 [Nylostab S-EED, N,N′-bis(2,2,6,6-tetramethyl-4-piperidinyl)-1,3-benzenedicarboxamide, reference compound] | 7.8
CC1(C)CC(NC(=O)c2ccc(C(=O)NC3CC(C)(C)NC(C)(C)C3)o2)CC(C)(C)N1 [Example 2, N,N′-bis(2,2,6,6-tetramethyl-4-piperidinyl)-2,5-furandicarboxamide] | 9.0
CC1(C)CC(OC(=O)c2ccc(C(=O)OC3CC(C)(C)NC(C)(C)C3)o2)CC(C)(C)N1 [Example 7, N,N′-bis(2,2,6,6-tetramethyl-4-piperidinyl) 2,5-furandicarboxylate] | 8.8
